Measured values reported in the supplement of paper PMC10849652.
This is one part of the list.

The chains behind the UniProt entries cited, without tags or fusion partners. Where a name states a change or a piece, a line headed by the entry shows the natural chain unless it says otherwise.
UniProt Q9Y6B7: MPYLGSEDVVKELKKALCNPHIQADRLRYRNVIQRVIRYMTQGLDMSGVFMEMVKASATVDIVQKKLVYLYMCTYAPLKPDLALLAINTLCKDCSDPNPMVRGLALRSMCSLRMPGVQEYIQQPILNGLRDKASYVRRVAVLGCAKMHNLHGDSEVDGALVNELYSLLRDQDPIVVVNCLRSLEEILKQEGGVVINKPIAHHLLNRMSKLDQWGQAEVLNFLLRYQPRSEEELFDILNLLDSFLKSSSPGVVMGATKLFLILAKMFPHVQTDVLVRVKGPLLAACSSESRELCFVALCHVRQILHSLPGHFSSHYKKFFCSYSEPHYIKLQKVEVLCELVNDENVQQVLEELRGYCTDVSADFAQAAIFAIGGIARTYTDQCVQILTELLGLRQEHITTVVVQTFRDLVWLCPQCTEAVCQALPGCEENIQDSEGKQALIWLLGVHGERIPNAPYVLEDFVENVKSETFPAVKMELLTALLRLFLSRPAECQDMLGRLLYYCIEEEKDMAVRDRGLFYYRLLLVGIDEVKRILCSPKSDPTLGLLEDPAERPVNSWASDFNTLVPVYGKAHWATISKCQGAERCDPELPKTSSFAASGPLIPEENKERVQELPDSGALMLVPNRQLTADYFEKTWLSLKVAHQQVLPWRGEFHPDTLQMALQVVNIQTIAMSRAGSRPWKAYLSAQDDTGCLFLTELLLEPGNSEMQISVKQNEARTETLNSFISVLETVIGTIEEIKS
UniProt Q8NB46: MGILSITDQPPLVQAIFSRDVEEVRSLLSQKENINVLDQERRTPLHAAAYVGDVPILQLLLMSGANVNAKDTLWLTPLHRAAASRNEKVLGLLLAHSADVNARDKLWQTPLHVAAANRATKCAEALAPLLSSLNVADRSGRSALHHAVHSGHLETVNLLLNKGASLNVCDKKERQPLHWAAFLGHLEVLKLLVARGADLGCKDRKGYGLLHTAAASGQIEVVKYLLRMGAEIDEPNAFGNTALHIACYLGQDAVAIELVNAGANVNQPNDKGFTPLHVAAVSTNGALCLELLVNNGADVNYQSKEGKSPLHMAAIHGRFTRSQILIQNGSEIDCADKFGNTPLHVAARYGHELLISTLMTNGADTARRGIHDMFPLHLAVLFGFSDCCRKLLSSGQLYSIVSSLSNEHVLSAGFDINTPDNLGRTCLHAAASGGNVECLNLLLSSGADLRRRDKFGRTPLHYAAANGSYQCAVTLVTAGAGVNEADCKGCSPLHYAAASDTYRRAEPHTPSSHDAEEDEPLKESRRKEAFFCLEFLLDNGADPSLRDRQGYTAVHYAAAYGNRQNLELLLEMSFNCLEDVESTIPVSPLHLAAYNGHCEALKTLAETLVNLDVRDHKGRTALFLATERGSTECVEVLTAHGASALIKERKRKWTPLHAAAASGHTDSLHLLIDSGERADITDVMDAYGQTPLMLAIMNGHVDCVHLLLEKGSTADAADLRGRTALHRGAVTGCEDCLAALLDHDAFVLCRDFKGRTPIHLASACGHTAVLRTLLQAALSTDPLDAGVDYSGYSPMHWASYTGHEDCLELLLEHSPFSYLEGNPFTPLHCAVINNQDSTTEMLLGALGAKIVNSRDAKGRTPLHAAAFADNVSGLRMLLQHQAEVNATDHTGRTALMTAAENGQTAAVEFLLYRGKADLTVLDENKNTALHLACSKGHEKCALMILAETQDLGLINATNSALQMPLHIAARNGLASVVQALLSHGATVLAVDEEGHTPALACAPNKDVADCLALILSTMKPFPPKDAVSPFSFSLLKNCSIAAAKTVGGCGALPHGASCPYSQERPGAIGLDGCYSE
UniProt Q96Q42: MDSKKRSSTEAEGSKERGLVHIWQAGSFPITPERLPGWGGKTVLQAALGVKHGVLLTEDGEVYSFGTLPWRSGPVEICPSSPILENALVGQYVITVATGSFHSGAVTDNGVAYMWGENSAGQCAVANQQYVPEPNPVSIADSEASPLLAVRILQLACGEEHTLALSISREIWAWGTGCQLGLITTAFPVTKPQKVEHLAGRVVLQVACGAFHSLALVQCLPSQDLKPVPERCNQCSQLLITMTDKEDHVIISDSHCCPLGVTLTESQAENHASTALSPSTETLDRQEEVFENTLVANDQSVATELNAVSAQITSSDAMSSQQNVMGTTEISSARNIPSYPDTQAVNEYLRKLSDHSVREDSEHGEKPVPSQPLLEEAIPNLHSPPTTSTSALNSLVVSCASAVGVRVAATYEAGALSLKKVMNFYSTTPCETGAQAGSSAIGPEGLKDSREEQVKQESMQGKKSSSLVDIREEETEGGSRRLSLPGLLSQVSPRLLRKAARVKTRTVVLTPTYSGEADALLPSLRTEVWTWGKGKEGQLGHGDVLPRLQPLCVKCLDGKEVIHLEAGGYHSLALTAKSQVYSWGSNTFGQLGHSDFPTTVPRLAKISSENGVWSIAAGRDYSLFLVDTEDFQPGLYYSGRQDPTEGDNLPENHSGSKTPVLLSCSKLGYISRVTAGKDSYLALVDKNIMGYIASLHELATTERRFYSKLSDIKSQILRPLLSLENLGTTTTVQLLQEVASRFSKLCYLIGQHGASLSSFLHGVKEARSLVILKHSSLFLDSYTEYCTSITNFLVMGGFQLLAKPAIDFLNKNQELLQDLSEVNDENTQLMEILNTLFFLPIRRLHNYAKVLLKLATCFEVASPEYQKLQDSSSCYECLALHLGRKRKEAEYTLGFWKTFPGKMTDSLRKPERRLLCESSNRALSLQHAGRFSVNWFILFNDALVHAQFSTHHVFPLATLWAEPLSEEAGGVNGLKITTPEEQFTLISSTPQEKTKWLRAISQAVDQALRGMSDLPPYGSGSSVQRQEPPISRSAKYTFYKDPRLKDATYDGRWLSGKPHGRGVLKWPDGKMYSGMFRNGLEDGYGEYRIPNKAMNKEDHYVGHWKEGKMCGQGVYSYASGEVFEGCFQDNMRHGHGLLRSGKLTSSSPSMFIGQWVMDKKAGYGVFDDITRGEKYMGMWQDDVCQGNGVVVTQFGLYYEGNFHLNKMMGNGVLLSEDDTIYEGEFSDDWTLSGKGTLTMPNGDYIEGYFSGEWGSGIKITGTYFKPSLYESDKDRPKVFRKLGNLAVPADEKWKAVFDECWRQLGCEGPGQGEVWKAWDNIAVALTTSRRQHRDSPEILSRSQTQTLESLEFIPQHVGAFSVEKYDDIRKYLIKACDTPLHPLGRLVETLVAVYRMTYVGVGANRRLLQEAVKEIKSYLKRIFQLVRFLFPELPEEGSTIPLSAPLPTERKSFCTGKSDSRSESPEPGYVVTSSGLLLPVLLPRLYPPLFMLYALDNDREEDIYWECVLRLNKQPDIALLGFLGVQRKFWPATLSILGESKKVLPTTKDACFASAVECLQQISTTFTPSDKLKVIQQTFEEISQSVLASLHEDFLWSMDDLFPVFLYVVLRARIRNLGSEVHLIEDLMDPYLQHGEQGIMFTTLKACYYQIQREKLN
UniProt P58335, whole entry, looked up: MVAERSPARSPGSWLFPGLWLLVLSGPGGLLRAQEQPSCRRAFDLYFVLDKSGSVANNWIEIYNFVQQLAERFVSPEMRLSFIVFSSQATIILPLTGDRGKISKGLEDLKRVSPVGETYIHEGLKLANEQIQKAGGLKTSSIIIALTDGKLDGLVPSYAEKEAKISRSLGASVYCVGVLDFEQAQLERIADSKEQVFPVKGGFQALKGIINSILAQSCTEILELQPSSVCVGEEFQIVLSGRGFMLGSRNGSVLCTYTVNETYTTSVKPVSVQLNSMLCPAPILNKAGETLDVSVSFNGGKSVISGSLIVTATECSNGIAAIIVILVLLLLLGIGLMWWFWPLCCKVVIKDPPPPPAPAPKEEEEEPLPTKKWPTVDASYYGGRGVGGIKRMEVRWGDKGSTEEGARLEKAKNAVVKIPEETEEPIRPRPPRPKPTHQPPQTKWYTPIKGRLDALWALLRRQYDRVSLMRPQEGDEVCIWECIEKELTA
UniProt Q3SY69: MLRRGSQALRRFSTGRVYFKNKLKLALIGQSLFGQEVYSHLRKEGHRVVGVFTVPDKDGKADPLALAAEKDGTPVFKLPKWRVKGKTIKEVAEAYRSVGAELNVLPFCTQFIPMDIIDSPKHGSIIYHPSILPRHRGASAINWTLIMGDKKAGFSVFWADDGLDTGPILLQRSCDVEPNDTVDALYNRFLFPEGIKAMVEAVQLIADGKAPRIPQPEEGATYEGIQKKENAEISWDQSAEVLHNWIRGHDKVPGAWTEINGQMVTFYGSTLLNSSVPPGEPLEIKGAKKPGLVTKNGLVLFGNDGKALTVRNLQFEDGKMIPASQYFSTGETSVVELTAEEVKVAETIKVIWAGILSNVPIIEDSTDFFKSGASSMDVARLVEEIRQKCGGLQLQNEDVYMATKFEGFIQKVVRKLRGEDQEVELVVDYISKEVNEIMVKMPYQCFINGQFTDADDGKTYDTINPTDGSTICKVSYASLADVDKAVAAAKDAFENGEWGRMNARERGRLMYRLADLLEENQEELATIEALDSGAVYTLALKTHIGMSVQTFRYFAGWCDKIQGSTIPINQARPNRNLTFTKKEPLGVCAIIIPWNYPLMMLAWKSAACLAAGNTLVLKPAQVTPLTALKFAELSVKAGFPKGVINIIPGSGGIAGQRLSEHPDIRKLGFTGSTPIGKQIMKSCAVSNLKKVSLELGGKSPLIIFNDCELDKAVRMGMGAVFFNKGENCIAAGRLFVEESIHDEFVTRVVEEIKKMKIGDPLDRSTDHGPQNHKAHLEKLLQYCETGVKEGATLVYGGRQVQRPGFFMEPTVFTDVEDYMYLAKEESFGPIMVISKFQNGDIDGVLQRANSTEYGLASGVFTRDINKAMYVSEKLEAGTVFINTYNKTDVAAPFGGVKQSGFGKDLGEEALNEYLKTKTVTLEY
UniProt P63010: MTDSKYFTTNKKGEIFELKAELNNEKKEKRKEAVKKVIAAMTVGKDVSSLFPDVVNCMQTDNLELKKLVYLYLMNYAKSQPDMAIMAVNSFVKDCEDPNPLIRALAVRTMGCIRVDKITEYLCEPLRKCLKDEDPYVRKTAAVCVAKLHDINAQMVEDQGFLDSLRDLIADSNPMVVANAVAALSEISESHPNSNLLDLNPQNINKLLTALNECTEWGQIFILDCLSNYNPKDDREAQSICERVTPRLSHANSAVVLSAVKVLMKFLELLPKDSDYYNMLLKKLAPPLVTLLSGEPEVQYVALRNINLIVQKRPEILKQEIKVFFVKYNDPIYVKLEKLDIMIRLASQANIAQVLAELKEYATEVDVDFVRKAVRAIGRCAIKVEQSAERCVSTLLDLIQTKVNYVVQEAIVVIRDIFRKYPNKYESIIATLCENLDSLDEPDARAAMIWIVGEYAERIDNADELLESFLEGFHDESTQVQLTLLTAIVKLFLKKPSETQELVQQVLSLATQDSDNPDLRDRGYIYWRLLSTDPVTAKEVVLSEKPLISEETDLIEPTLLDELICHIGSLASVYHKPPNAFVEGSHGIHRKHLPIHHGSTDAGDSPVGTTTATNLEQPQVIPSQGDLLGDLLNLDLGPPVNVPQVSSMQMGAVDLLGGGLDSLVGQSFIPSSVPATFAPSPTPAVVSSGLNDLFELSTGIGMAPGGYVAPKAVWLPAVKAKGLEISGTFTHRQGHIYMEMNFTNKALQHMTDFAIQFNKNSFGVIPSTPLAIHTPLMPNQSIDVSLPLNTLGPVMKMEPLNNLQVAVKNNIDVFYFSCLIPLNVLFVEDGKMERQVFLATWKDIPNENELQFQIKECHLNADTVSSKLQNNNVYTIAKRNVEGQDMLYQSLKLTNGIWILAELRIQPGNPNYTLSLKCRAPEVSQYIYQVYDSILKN
UniProt Q6AI12: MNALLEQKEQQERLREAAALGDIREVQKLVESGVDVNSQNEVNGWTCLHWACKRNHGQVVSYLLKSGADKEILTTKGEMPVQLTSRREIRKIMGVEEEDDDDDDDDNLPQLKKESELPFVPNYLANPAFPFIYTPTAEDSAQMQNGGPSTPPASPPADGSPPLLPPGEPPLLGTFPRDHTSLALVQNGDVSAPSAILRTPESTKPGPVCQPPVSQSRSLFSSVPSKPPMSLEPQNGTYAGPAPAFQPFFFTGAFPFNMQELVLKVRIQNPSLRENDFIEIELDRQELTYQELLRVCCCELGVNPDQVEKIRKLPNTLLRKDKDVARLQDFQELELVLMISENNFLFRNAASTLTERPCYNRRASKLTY
UniProt Q9BTT0: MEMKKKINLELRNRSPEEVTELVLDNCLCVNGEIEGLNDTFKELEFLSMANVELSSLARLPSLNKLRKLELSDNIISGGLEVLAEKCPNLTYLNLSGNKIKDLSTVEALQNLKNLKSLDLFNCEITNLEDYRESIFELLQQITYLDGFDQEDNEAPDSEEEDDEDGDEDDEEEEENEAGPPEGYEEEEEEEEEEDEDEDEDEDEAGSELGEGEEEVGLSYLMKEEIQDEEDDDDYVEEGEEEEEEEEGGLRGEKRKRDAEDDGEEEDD

Experiments:
Assay in all cases: log2 fold change, soluble protein after heating vs DMSO (PISA); higher = thermal stabilisation; K562 lysate, 10 uM; active = over 0.2 and 3.5 SD of the protein, either way, in both replicates (recomputed)
alvocidib = compound: CN1CC[C@H](c2c(O)cc(O)c3c(=O)cc(-c4ccccc4Cl)oc23)[C@H](O)C1 [alvocidib]
Summary of the method: (§1)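 Values give the log-two fold change in thermal stability against solvent controls, from duplicates. Crude K562 extract at 1 mg/mL protein, made by dounce homogenisation in PBS pH 7.4 with 1 mM MgCl2, was treated with 10 μM compound for 30 min. After 3 min heating across 48°C-58°C, aliquots were pooled, adjusted to 0.5% NP-40 at 4°C and centrifuged at 21,000xg for 90 min. The supernatant was measured by TMTpro 16plex LC-MS/MS with channel sums equalised.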

Tubastatin A = compound: CN1CCc2c(c3ccccc3n2Cc2ccc(C(=O)NO)cc2)C1 [Tubastatin A]
Summary of the method: as §1

[1] = compound: CNC(=O)C1=CC=CC=C1NC2=NC(=NC=C2Cl)NC3=C(C=C(C=C3)N4CCOCC4)OC
Summary of the method: as §1

defactinib = compound: CNC(=O)c1ccc(Nc2ncc(C(F)(F)F)c(NCc3nccnc3N(C)S(C)(=O)=O)n2)cc1 [defactinib]
Summary of the method: as §1

[2] = compound: CNc1nc(-c2ccc3c(N)n[nH]c3c2)cc(N2C[C@@H](C(=O)NC3CCCCC3)CC[C@H]2C)n1
Summary of the method: as §1

encorafenib = compound: COC(=O)N[C@@H](C)CNc1nccc(-c2cn(C(C)C)nc2-c2cc(Cl)cc(NS(C)(=O)=O)c2F)n1 [encorafenib]
Summary of the method: as §1

[3] = compound: COC(=O)[C@H](CCSC)NC(=O)C1=C(C=C(C=C1)NC[C@H](CS)N)C2=CC=CC=C2
Summary of the method: as §1

alisertib = compound: COc1cc(Nc2ncc3c(n2)-c2ccc(Cl)cc2C(c2c(F)cccc2OC)=NC3)ccc1C(=O)O [alisertib]
Summary of the method: as §1

[4] = compound: COc1cc2nc(-c3cc(F)ccc3O)nc(N[C@@H]3CNC[C@H]3C(C)(C)O)c2cc1OC
Summary of the method: as §1

gefitinib = compound: COc1cc2ncnc(Nc3ccc(F)c(Cl)c3)c2cc1OCCCN1CCOCC1 [gefitinib]
Summary of the method: as §1

lapatinib = compound: CS(=O)(=O)CCNCc1ccc(-c2ccc3ncnc(Nc4ccc(OCc5cccc(F)c5)c(Cl)c4)c3c2)o1 [lapatinib]
Summary of the method: as §1

pictilisib = compound: CS(=O)(=O)N1CCN(Cc2cc3nc(-c4cccc5[nH]ncc45)nc(N4CCOCC4)c3s2)CC1 [pictilisib]
Summary of the method: as §1

crizotinib = compound: C[C@@H](Oc1cc(-c2cnn(C3CCNCC3)c2)cnc1N)c1c(Cl)ccc(F)c1Cl [crizotinib]
Summary of the method: as §1

[5] = compound: C[C@H](C1=CC=C(C=C1)C(=O)NC2=C3C=CNC3=NC=C2)N
Summary of the method: as §1

duvelisib = compound: C[C@H](Nc1ncnc2nc[nH]c12)c1cc2cccc(Cl)c2c(=O)n1-c1ccccc1 [duvelisib]
Summary of the method: as §1

gandotinib = compound: Cc1cc(Nc2cc(CN3CCOCC3)c3nc(C)c(Cc4ccc(Cl)cc4F)n3n2)n[nH]1 [gandotinib]
Summary of the method: as §1

tozasertib = compound: Cc1cc(Nc2cc(N3CCN(C)CC3)nc(Sc3ccc(NC(=O)C4CC4)cc3)n2)n[nH]1 [tozasertib]
Summary of the method: as §1

doramapimod = compound: Cc1ccc(-n2nc(C(C)(C)C)cc2NC(=O)Nc2ccc(OCCN3CCOCC3)c3ccccc23)cc1 [doramapimod]
Summary of the method: as §1

bafetinib = compound: Cc1ccc(NC(=O)c2ccc(CN3CC[C@H](N(C)C)C3)c(C(F)(F)F)c2)cc1Nc1nccc(-c2cncnc2)n1 [bafetinib]
Summary of the method: as §1

[6] = compound: Cc1cccc(CC(=O)N2CCc3c2ccc(-c2cn(C)c4ncnc(N)c24)c3F)n1
Summary of the method: as §1

Measured: log2 fold change

AP4B1 (UniProt Q9Y6B7)
inactive: alvocidib -0.053 | Tubastatin A -0.021 | [1] -0.051 | defactinib -0.001 | [2] 0.041 | encorafenib 0.057 | [3] -0.01 | alisertib -0.014 | [4] -0.121 | gefitinib 0.031 | lapatinib 0.064 | pictilisib -0.142 | crizotinib 0.025 | [5] -0.106 | duvelisib -0.058 | gandotinib -0.023 | tozasertib -0.011 | doramapimod 0.019 | bafetinib -0.079 | [6] 0.135

AKT1 (UniProt P31749)
inactive: alvocidib -0.002 | Tubastatin A -0.018 | [1] 0.036 | defactinib 0.038 | [2] -0.05 | encorafenib 0.084 | [3] 0.093 | alisertib 0.019 | [4] 0.003 | gefitinib -0.05 | lapatinib 0.054 | pictilisib 0.002 | crizotinib -0.049 | [5] -0.034 | duvelisib -0.008 | gandotinib -0.048 | tozasertib 0 | doramapimod 0.031 | bafetinib -0.044 | [6] 0.033

ANKHD1 isoform 6 (UniProt Q8IWZ3)
inactive: alvocidib -0.109 | Tubastatin A -0.091 | [1] 0.014 | defactinib 0.032 | [2] -0.017 | encorafenib 0.036 | [3] 0.002 | alisertib 0.031 | [4] -0.005 | gefitinib -0.002 | lapatinib -0.002 | pictilisib -0.021 | crizotinib -0.028 | [5] -0.129 | duvelisib 0.028 | gandotinib 0.096 | tozasertib 0.01 | doramapimod -0.069 | bafetinib -0.043 | [6] 0.155

ALG13 (UniProt Q9NP73)
inactive: alvocidib -0.039 | Tubastatin A -0.065 | [1] 0.122 | defactinib 0.028 | [2] 0.053 | encorafenib 0.059 | [3] -0.082 | alisertib -0.059 | [4] 0 | gefitinib -0.224 | lapatinib 0.017 | pictilisib -0.002 | crizotinib -0.12 | [5] -0.075 | duvelisib 0 | gandotinib 0.044 | tozasertib -0.091 | doramapimod -0.015 | bafetinib -0.025 | [6] 0.127

ANKRD52 (UniProt Q8NB46)
inactive: alvocidib -0.002 | Tubastatin A -0.132 | [1] -0.003 | defactinib 0.076 | [2] 0.014 | encorafenib 0.047 | [3] 0.11 | alisertib 0.005 | [4] 0 | gefitinib 0.039 | lapatinib -0.133 | pictilisib -0.036 | crizotinib -0.11 | [5] -0.004 | duvelisib 0.01 | gandotinib 0.012 | tozasertib 0 | doramapimod 0.001 | bafetinib -0.071 | [6] 0.034

ALS2 (UniProt Q96Q42)
inactive: alvocidib -0.045 | Tubastatin A -0.263 | [1] 0.045 | defactinib -0.105 | [2] 0.059 | encorafenib 0.005 | [3] -0.06 | alisertib 0.076 | [4] 0.082 | gefitinib -0.11 | lapatinib 0.051 | pictilisib -0.077 | crizotinib -0.052 | [5] 0.014 | duvelisib 0.013 | gandotinib -0.032 | tozasertib -0.093 | doramapimod -0.003 | bafetinib 0.077 | [6] 0.074

ANTXR2 isoform 4 (UniProt P58335)
inactive: alvocidib -0.043 | Tubastatin A 0.06 | [1] -0.015 | defactinib -0.001 | [2] -0.004 | encorafenib 0.001 | [3] -0.034 | alisertib -0.022 | [4] 0.011 | gefitinib 0.027 | lapatinib -0.015 | pictilisib -0.002 | crizotinib -0.037 | [5] -0.084 | duvelisib 0.017 | gandotinib 0.085 | tozasertib -0.036 | doramapimod -0.021 | bafetinib -0.031 | [6] 0.084

Quoted from above (5 entries):
ANKHD1 isoform 6 (UniProt Q8IWZ3)
inactive: alvocidib -0.109 | Tubastatin A -0.091 | [1] 0.014 | defactinib 0.032 | [2] -0.017 | encorafenib 0.036 | [3] 0.002 | alisertib 0.031 | [4] -0.005 | gefitinib -0.002 | lapatinib -0.002 | pictilisib -0.021 | crizotinib -0.028 | [5] -0.129 | duvelisib 0.028 | gandotinib 0.096 | tozasertib 0.01 | doramapimod -0.069 | bafetinib -0.043 | [6] 0.155

ALG13 (UniProt Q9NP73)
inactive: alvocidib -0.039 | Tubastatin A -0.065 | [1] 0.122 | defactinib 0.028 | [2] 0.053 | encorafenib 0.059 | [3] -0.082 | alisertib -0.059 | [4] 0 | gefitinib -0.224 | lapatinib 0.017 | pictilisib -0.002 | crizotinib -0.12 | [5] -0.075 | duvelisib 0 | gandotinib 0.044 | tozasertib -0.091 | doramapimod -0.015 | bafetinib -0.025 | [6] 0.127

ANKRD52 (UniProt Q8NB46)
inactive: alvocidib -0.002 | Tubastatin A -0.132 | [1] -0.003 | defactinib 0.076 | [2] 0.014 | encorafenib 0.047 | [3] 0.11 | alisertib 0.005 | [4] 0 | gefitinib 0.039 | lapatinib -0.133 | pictilisib -0.036 | crizotinib -0.11 | [5] -0.004 | duvelisib 0.01 | gandotinib 0.012 | tozasertib 0 | doramapimod 0.001 | bafetinib -0.071 | [6] 0.034

ALS2 (UniProt Q96Q42)
inactive: alvocidib -0.045 | Tubastatin A -0.263 | [1] 0.045 | defactinib -0.105 | [2] 0.059 | encorafenib 0.005 | [3] -0.06 | alisertib 0.076 | [4] 0.082 | gefitinib -0.11 | lapatinib 0.051 | pictilisib -0.077 | crizotinib -0.052 | [5] 0.014 | duvelisib 0.013 | gandotinib -0.032 | tozasertib -0.093 | doramapimod -0.003 | bafetinib 0.077 | [6] 0.074

ANTXR2 isoform 4 (UniProt P58335)
inactive: alvocidib -0.043 | Tubastatin A 0.06 | [1] -0.015 | defactinib -0.001 | [2] -0.004 | encorafenib 0.001 | [3] -0.034 | alisertib -0.022 | [4] 0.011 | gefitinib 0.027 | lapatinib -0.015 | pictilisib -0.002 | crizotinib -0.037 | [5] -0.084 | duvelisib 0.017 | gandotinib 0.085 | tozasertib -0.036 | doramapimod -0.021 | bafetinib -0.031 | [6] 0.084

Following part

ANKRD30B (UniProt Q9BXX2)
inactive: alvocidib -0.307 | Tubastatin A 0.007 | [1] -0.01 | defactinib -0.155 | [2] 0.284 | encorafenib -0.113 | [3] 0.164 | alisertib -0.002 | [4] -0.067 | gefitinib -0.036 | lapatinib -0.049 | pictilisib -0.068 | duvelisib 0.087 | gandotinib 0.337 | tozasertib -0.005 | bafetinib -0.163 | [6] 0.397
active: [5] -0.558

AMFR (UniProt Q9UKV5)
inactive: alvocidib -0.143 | Tubastatin A -0.071 | [1] -0.049 | defactinib 0.124 | [2] -0.064 | encorafenib 0.085 | [3] 0.083 | alisertib 0.094 | gefitinib 0.076 | crizotinib -0.075 | [5] 0.19 | duvelisib -0.026 | gandotinib -0.059 | tozasertib -0.056 | doramapimod 0.028 | [6] 0.08

ALDH1L2 (UniProt Q3SY69)
active: [3] 0.288
inactive: alvocidib -0.04 | Tubastatin A -0.03 | [1] -0.028 | defactinib -0.04 | [2] -0.021 | encorafenib -0.002 | alisertib -0.039 | [4] 0.039 | gefitinib 0.017 | lapatinib 0.029 | pictilisib -0.01 | crizotinib -0.032 | [5] -0.066 | duvelisib 0.003 | gandotinib 0.039 | tozasertib 0.032 | doramapimod 0.005 | bafetinib -0.029 | [6] 0.083

ANKLE2 (UniProt Q86XL3)
inactive: alvocidib -0.013 | Tubastatin A 0.002 | [1] -0.004 | defactinib 0.038 | [2] 0.045 | encorafenib -0.041 | [3] 0.145 | alisertib -0.032 | gefitinib 0.005 | pictilisib -0.03 | crizotinib 0.009 | [5] 0.042 | duvelisib 0.001 | gandotinib -0.131 | tozasertib -0.083 | doramapimod 0.016 | bafetinib -0.107 | [6] -0.001

AMBRA1 isoform 5 (UniProt Q9C0C7)
inactive: alvocidib -0.1 | Tubastatin A 0.073 | [1] 0.057 | defactinib 0.027 | [2] 0.066 | encorafenib 0.067 | [3] 0.049 | alisertib 0.002 | [4] -0.011 | gefitinib -0.016 | lapatinib -0.074 | crizotinib -0.007 | [5] -0.011 | duvelisib -0.062 | gandotinib 0.007 | tozasertib -0.055 | doramapimod 0.051 | [6] 0.109

AP2B1 isoform 2 (UniProt P63010)
inactive: alvocidib -0.025 | Tubastatin A 0.021 | [1] 0.014 | defactinib -0.013 | [2] 0 | encorafenib -0.014 | [3] -0.02 | alisertib -0.014 | [4] -0.007 | gefitinib -0.032 | lapatinib 0.002 | pictilisib 0.01 | crizotinib -0.015 | [5] -0.082 | duvelisib 0.009 | gandotinib 0.062 | tozasertib -0.011 | doramapimod 0.036 | bafetinib 0.005 | [6] 0.016

AKT2 (UniProt P31751)
inactive: alvocidib 0.001 | Tubastatin A -0.061 | [1] 0.036 | defactinib -0.013 | [2] -0.064 | encorafenib 0.028 | [3] 0.037 | alisertib 0.003 | [4] -0.005 | gefitinib -0.013 | lapatinib -0.022 | pictilisib 0.005 | crizotinib 0.015 | [5] -0.007 | duvelisib -0.005 | gandotinib -0.022 | tozasertib 0.033 | doramapimod -0.015 | bafetinib 0.051 | [6] -0.036

ANKRD40 (UniProt Q6AI12)
inactive: alvocidib 0.084 | Tubastatin A -0.164 | [1] 0.08 | defactinib 0.095 | [2] 0.101 | encorafenib 0.04 | [3] -0.109 | alisertib -0.188 | gefitinib -0.089 | pictilisib -0.116 | crizotinib -0.022 | [5] -0.018 | duvelisib -0.171 | gandotinib -0.032 | tozasertib 0.249 | doramapimod -0.027 | bafetinib -0.149 | [6] -0.067

ANP32E (UniProt Q9BTT0)
inactive: alvocidib 0 | Tubastatin A 0.079 | [1] -0.007 | defactinib -0.018 | [2] 0.056 | encorafenib -0.037 | [3] -0.008 | alisertib -0.019 | [4] 0.007 | gefitinib -0.061 | lapatinib -0.026 | pictilisib 0.003 | crizotinib 0.007 | [5] -0.017 | duvelisib 0.015 | gandotinib 0.013 | tozasertib 0.041 | doramapimod -0.017 | bafetinib -0.003 | [6] -0.032

ANAPC16 (UniProt Q96DE5)
inactive: alvocidib 0.147 | Tubastatin A -0.062 | [1] 0.098 | defactinib 0.144 | [2] 0.014 | encorafenib 0.045 | [3] -0.24 | alisertib 0.11 | [4] -0.069 | gefitinib -0.076 | lapatinib 0.087 | crizotinib -0.023 | [5] 0.095 | duvelisib -0.002 | gandotinib -0.072 | tozasertib 0.121 | doramapimod -0.008 | [6] -0.145
